Laboratory results from PubChem BioAssay AID1347423 (Functional Genomics Laboratory (NCATS/FGL), 2020).
In all, about 52,000 sequences went through this assay and about 210 (0.4%) were called active.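 The calls were made as follows: active = gene whose silencing raises cell survival under the drug, median off-target-corrected z-score across its silencing RNAs 2 or more; inactive = the rest.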 Some of the results follow.

assay: Resistance to Poly (ADP-Ribose) Polymerase inhibitor: Gene Identification via Genome-wide siRNA Screen; settings: mouse BRCA2 R2336H ES cells, olaparib, CellTiter-Glo viability; active compounds read high
Method in brief: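 Genome-wide siRNA screen (3 siRNAs/gene, 20 nM) in mouse ES cells carrying hypomorphic BRCA2 R2336H; olaparib 500 nM added 48 h post-transfection, CellTiter-Glo viability 72 h later. Normalized to plate-median negative control; MAD z-scores, gene median, seed-adjusted.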

Sequence	z-score
GGUGGACUCUGUUUAAAAATT against Mtnr1a	inactive: -0.382
GGUUCAGUUUUGGCUGGCUTT against Olfr558	inactive: -0.333
GGAUACAUUAAGGUGCAAGTT against Aldh1a7	inactive: 1.71
GGACACCAAAAGCUAAGUGTT against 1810031K17Rik	inactive: -0.829
GGUGGCUCUGGUUAAACUCTT against BC060631	inactive: -0.227
GGUUCUUUCGAGAAUGGACTT against Card4	inactive: 1.97
GGACAGAUUGUGGAAACCUTT against Catns	inactive: -1.54
CCCAGAUACGCUAUUCGGUTT against Pcdhga12	inactive: 0.339
GGAAAUGAGACGAAGGAGGTT against Kpna6	inactive: -0.323
GGAGAGUUUGUCAUUAGUUTT against 5031400M07Rik	inactive: -0.807
GGAAGAUCCUUGGAAAAUUTT against 2810439K08Rik	inactive: 0.154
GCCCUAAUUAGCUUUUUGUTT against Gpr68	inactive: 0.425
GUAAUCACCUUAAAGAUGUTT against Cebpb	inactive: 0.504
GGGCAAGAAACCUCUUAACTT against Synpo2	inactive: -0.679
GGGUCAUCCAAUAUUUUGCTT against Myh7	inactive: 0.473
GGAGAAAAAUAUUCUCUACTT against Olfr1094	inactive: 0.822
CCGGCUAUCUUUGAGAUGGTT against Kif3c	inactive: -0.48
CCAUUAGGAUCCCUUAGGGTT against AY534253	inactive: 1.2
GGACUUCAAGUGGCUGAAGTT against Siat6	inactive: 1.69
GGUUGUUGGAAAAAUAGAUTT against 3010001K23Rik	inactive: -1.91
GGCAACAUUGAACAUGCCUTT against Stambp	inactive: -0.472
GCAAUAGUAUGGUAAGUUATT against F730015K02Rik	inactive: -0.985

Sequence	z-score
CCACAGUGAGCCAUCGAUATT against Slfn8-pending	inactive: 0.124
AUUCAUGUGGGCUUGUUAGTT against Olfr198	inactive: 0.66
CGGGUGAUGCCUAUGUCAUTT against Gsn	inactive: 1.85
GGAGACUUUGUUCAUGACATT against Tacr2	inactive: 2.03
CCCAUUAGACCCAAGUUGGTT against Inpp5e	inactive: -0.0923
GGAUGACCGUAUUGUGCUUTT against Actc1	inactive: -1.01
GGAAUCGAUGUUAACAUAATT against Anks1	inactive: 1.13
GCAUAUUCUCACGUUUUCCTT against Mrgpra6	inactive: 0.895
GGAUGCUGUUCGAGCUCAUTT against A830039B04Rik	inactive: -1.34
GGCAAGUUUCGCACCUCAGTT against Zfp219	inactive: -0.26
GGAUUAUGGAGUUUGAUAGTT against Mrgprb4	inactive: -0.226
GGGUCAGUCCUUUUGAAUCTT against Rps15a	inactive: -0.291
GCUUUGUCUACGUCUUUCATT against Gpnmb	inactive: 0.309
GCAUCUAUACACCGUCAGCTT against Znf341	inactive: 0.0571
GGUUCAGAUGAAAUUUAGGTT against Ccnb1	inactive: -0.846
GCCUCCCUCCAACAUUUAUTT against Sall4	inactive: -0.954
GGGACGUGCAAUUGUCUGATT against 2210010L05Rik	inactive: 0.163
GGAAAGAUCACUCUUGCAUTT against Pon1	inactive: 0.225
GUAUUCCAAUGUGGUGUUCTT against Txn1	inactive: -1.82
GGUACUAAAGAAAUAUCCCTT against Sirt7	inactive: 0.0535
GCUACAAUGCAACGUGGCUTT against Slc2a4	inactive: 0.421
GGAACUGGGUCUUCUUCAUTT against C330049O21Rik	inactive: -0.716

Shown bar-delimited: entries from further up
Sequence | z-score
GGACAGAUUGUGGAAACCUTT against Catns | inactive: -1.54
GCCCUAAUUAGCUUUUUGUTT against Gpr68 | inactive: 0.425
GGUUCAGAUGAAAUUUAGGTT against Ccnb1 | inactive: -0.846
GGGACGUGCAAUUGUCUGATT against 2210010L05Rik | inactive: 0.163
GUAUUCCAAUGUGGUGUUCTT against Txn1 | inactive: -1.82

Following part.

Sequence	z-score
GGUGGAAAGAGAGAGCUACTT against Slc12a7	inactive: 0.0731
GCUUCUGACCAUAUGUAGATT against Cd19	inactive: -0.259
GGUCACCUCAAUAAACUCUTT against Myl7	inactive: 0.915
GGAAACUUUGCUGGUUAUATT against Dct	inactive: -1.09
GGGCAACCCAAAGAUGCCATT against Pla2g2d	inactive: 0.00202
GGCAGCUCACAUGAGCUUUTT against Hoxa4	inactive: 0.688
GGGCAUGGAUUUUAUCCACTT against 4633402D15Rik	inactive: -0.882
GAGGAGCUAUCAUCUCAGGTT against Mlr1	inactive: 0.556
CGAGUGUGAGCUACAGCGUTT against Agrn	inactive: 0.477
GGACUCACCCAUUCUUAUUTT against Mapre3	inactive: 0.0711
GGCCAUCAAACAGACCUACTT against Lrp5	inactive: 1.01
CAUCUUUCAUCAAAUAACUTT against LOC432602	inactive: 0.458
GGAGAGUGAGAUCAUCUUUTT against Pde6a	inactive: 1.63
GGCGCACAAAGCUGUUCUUTT against Zfp297b	inactive: -0.878
CCCAUAGCUGAGCCUAACUTT against D630005B22Rik	inactive: 0.162
GGUGGUGACCUUGGAUGUUTT against BC021614	inactive: -0.275
UGGAUAUUGGCUGAUGAGCTT against Bckdhb	inactive: -0.667
GCACAACAUCGAAAUUGAGTT against Lrrn6a	inactive: 1.06
GGAAGAUUAUAUUGAGAGATT against Bnip3	inactive: 0.323
GGGAAUGGAAACGGCCAUGTT against Nmt1	inactive: 0.643
CGGAAAUGUAUACAAAUCATT against Myt1l	inactive: 0.139
CGAACUUGGUUUAAGCAAUTT against 4933434L15Rik	inactive: 0.846
